Source: PubChem BioAssay AID493014 (National Center for Advancing Translational Sciences (NCATS), 2011)
This is one part of the list. These are further read-outs of the screen, such as a control signal, another cell line or another target. No call is given for them. Most of these compounds were active or inconclusive in the main read-out, so they are no random draw. The note in brackets gives the kind of curve behind each potency; many fits are weak.

Assay: qHTS Assay to Find Inhibitors of Chronic Active B-Cell Receptor Signaling
Conditions: ABC-DLBCL IkBa-CBG/CBR reporter, luminescence ratio (green luciferase fused to IkBa over red control in TMD8 lymphoma cells), 4 h; measured here: CBR red luminescence, cell number
Method in brief: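 Compounds up to 46 uM were incubated four hours with TMD8 cells whose green CBG68 luciferase is fused to IkappaBalpha; red CBR luminescence normalised the signal, and concentration-effect curves were fitted to fusion, red and ratio data.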

For `CC(C)CNS(=O)(=O)c1cc(C(=O)OCC(=O)N(C)C2CCS(=O)(=O)C2)c(Cl)cc1Cl` (stereo not drawn), which AC50 is on record?
Its AC50 is 3.98 µM [falling, full curve, poor fit].

With `CS(=O)(=O)N(CC(=O)NCc1ccc2c(c1)OCO2)Cc1ccccc1` as the compound, how does the AC50 read?
Its AC50 is 32.6 µM [falling, partial curve, poor fit].

With `Cn1c(-c2ccc(F)cc2)cnc1NCc1ccccc1` as the compound, how does the AC50 read?
The AC50 was 20.6 µM [falling, single point].

Which AC50 does the source give for `COc1cc(C)c(S(=O)(=O)N2CCCC2)cc1C` here?
The AC50 was 10.3 µM [rising, partial curve, poor fit].

Which AC50 does the source give for `CCOC(=O)c1sc2nc(N3CCOCC3)c3c(c2c1N)CCC3` here?
The AC50 was 35.5 µM [falling, single point].

With `Cc1ccc(NC(=O)C(C)Sc2nc(=O)cc(N)n2-c2ccccc2)cc1` (stereo not drawn) as the compound, how does the AC50 read?
The AC50 was 18.4 µM [falling, partial curve, poor fit].

With `O=C(CSc1nc2ccccc2o1)c1ccc2c(c1)OCCO2` as the compound, how does the AC50 read?
The AC50 was 8.2 µM [rising, partial curve, poor fit].

Which AC50 does the source give for `Nc1nc(CSCc2ccccc2)nc(N2CCOCC2)n1` here?
The AC50 was 1.64 µM [rising, partial curve, poor fit].

With `CCOC(=O)c1ccc(NC(=O)c2ccc(CO)c(C(=O)NC3CCN(C(=O)OCC)CC3)c2)cc1` as the compound, how does the AC50 read?
Its AC50 is 6.51 µM [rising, single point].

With `CC(=O)c1c(C)[nH]c(C(=O)Nc2cccc(S(=O)(=O)N3CCOCC3)c2)c1C` as the compound, how does the AC50 read?
The AC50 was 29.1 µM [rising, single point].

With `COc1ccc(CC(=O)N2CCN=C2SC)cc1` as the compound, how does the AC50 read?
Its AC50 is 29.1 µM [rising, single point].

For `[O-][n+]1c2ccccc2c2n1CCCN=C2c1ccc(Cl)cc1`, which AC50 is on record?
Its AC50 is 18.4 µM [falling, single point].

With `COc1ccc(-n2nnnc2S(=O)(=O)CC(=O)N2CCCCC2)cc1` as the compound, how does the AC50 read?
Its AC50 is 29.1 µM [falling, single point].

For `O=C(Nc1nc2cc3c(cc2s1)OCCO3)c1ccco1`, which AC50 is on record?
The AC50 was 2 µM [falling, full curve].

With `CC(C)OC(=O)CSc1ncnc2c1cnn2-c1ccccc1` as the compound, how does the AC50 read?
Its AC50 is 17.8 µM [falling, partial curve, poor fit].

With `Cc1ccc2cc3cc(C(=O)NCCCN4CCCC4=O)oc3nc2c1` as the compound, how does the AC50 read?
The AC50 was 0.112 µM [rising, full curve, poor fit].

For `S=C(c1ccc(-c2ccc(Cl)cc2)o1)N1CCCCC1`, which AC50 is on record?
The AC50 was 0.116 µM [rising, full curve, poor fit].

Which AC50 does the source give for `CCc1cc(-c2n[nH]c(C)c2-c2nc3ccccc3s2)c(O)cc1OCC(=O)NN` here?
Its AC50 is 35.5 µM [falling, single point].
